Laboratory results as given in US4330532A, “Angiotensin-II analogues with antagonizing effects, containing an α-hydroxycarboxylic acid residue in position 8, and a process for the preparation thereof” (Richter Gedeon Vegyeszeti Gyar Rt., priority 1980, dated 1982).
At least one peptide structure holds a part that was inferred or is arguable (an end, a ring closure or a residue).

Tested on: hypertension provoked by angiotensin-II (Hypertensin (CIBA) infusion)
Experiment: Antagonistic (hypotensive) effect on Hypertensin-infused narcotized male cats
Format: in vivo, cat
Description: The antagonistic effects of the new compounds of the formula (I) were investigated on narcotized male cats. After treating the animals with a ganglion blocking agent and bisecting the cervical vagus nerves on both sides, the animals were treated with an infusion of Hypertensin (CIBA) at a rate of 0.5 μg/kg/min. When the blood pressure of the animals reached a steady, increased level, the substance to be tested was administered either intravenously or subcutaneously in physiological saline solution or as an aqueous solution which also contained a carrier. The blood pressure drop was measured in mm Hg units, and the extent of decrease was expressed in percents related to the value before treatment. The statistical evaluation was performed on the basis of the blood pressure differences, by Student's single sample "t" test. The term "duration of effect" denotes the period elapsed until the observation of the last still significant (p±5%) blood pressure difference.

[1] = s.c., carboxymethyl cellulose (CMC) carrier, dose 100 μg/kg
[2] = s.c., physiological saline, dose 100 μg/kg
[3] = s.c., carboxymethyl cellulose (CMC) carrier, dose 50 μg/kg
[4] = s.c., carboxymethyl cellulose (CMC) carrier, dose 200 μg/kg
[5] = s.c., gelatine carrier, dose 50 μg/kg
[6] = s.c., gelatine carrier, dose 100 μg/kg
[7] = s.c., gelatine carrier, dose 200 μg/kg
[8] = s.c., physiological saline, dose 50 μg/kg
[9] = s.c., physiological saline, dose 200 μg/kg

CCC(C)[C@H](OC(=O)[C@@H]1CCCN1C(=O)[C@H](Cc1c[nH]cn1)NC(=O)[C@@H](NC(=O)[C@H](Cc1ccc(O)cc1)NC(=O)[C@@H](NC(=O)[C@H](CCCNC(=N)N)NC(=O)CNC)C(C)C)[C@@H](C)CC)C(=O)O (stereo partly drawn) [(Sar^1,HMV^8)Ang-II, (sarcosine^1, L-2-hydroxy-3-methylvaleric acid^8)-angiotensin-II]
blood pressure drop, extent of decrease in percents related to the value before treatment (i.v., dose 10 μg/kg): 33% | duration of effect (i.v., dose 10 μg/kg): 45 min | blood pressure drop, extent of decrease in percents related to the value before treatment (i.v., dose 20 μg/kg): 40% | duration of effect (i.v., dose 20 μg/kg): 20 min | blood pressure drop, extent of decrease in percents related to the value before treatment [1]: 35% | duration of effect [1]: 300 min | blood pressure drop, extent of decrease in percents related to the value before treatment [2]: 18% | duration of effect [2]: 30 min

CCOC(=O)[C@H](C)OC(=O)[C@@H]1CCCN1C(=O)[C@H](Cc1c[nH]cn1)NC(=O)[C@@H](NC(=O)[C@H](Cc1ccc(O)cc1)NC(=O)[C@@H](NC(=O)[C@H](CCCNC(=N)N)NC(=O)CNC)C(C)C)[C@@H](C)CC [(Sar^1,L-Lac--OEt^8)Ang-II, (sarcosine^1,ethyl L-Lactate^8)-angio-tensin-II]
blood pressure drop, extent of decrease in percents related to the value before treatment (i.v., dose 10 μg/kg): 27% | duration of effect (i.v., dose 10 μg/kg): 12 min | blood pressure drop, extent of decrease in percents related to the value before treatment (i.v., dose 20 μg/kg): 40% | duration of effect (i.v., dose 20 μg/kg): 25 min | blood pressure drop, extent of decrease in percents related to the value before treatment [1]: 41% | duration of effect [1]: 90 min | blood pressure drop, extent of decrease in percents related to the value before treatment [2]: 15% | duration of effect [2]: 45 min

CC[C@H](C)[C@H](NC(=O)[C@H](Cc1ccc(O)cc1)NC(=O)[C@@H](NC(=O)[C@H](CCCNC(=N)N)NC(=O)CNC)C(C)C)C(=O)N[C@@H](Cc1c[nH]cn1)C(=O)N1CCC[C@H]1C(=O)O[C@@H](C)C(=O)O [(Sar^1,L-Lac^8)Ang-II, (sarcosine^1,L-lactic acid^8)-angiotensin-II]
blood pressure drop, extent of decrease in percents related to the value before treatment (i.v., dose 10 μg/kg): 23% | duration of effect (i.v., dose 10 μg/kg): 15 min | blood pressure drop, extent of decrease in percents related to the value before treatment (i.v., dose 20 μg/kg): 29% | duration of effect (i.v., dose 20 μg/kg): 15 min | blood pressure drop, extent of decrease in percents related to the value before treatment [3]: 25% | duration of effect [3]: 45 min | blood pressure drop, extent of decrease in percents related to the value before treatment [1]: 27% | duration of effect [1]: 90 min | blood pressure drop, extent of decrease in percents related to the value before treatment [4]: 22% | duration of effect [4]: 45 min | blood pressure drop, extent of decrease in percents related to the value before treatment [5]: 24% | duration of effect [5]: 90 min | blood pressure drop, extent of decrease in percents related to the value before treatment [6]: 32% | duration of effect [6]: 90 min | blood pressure drop, extent of decrease in percents related to the value before treatment [7]: 28% | duration of effect [7]: 120 min | blood pressure drop, extent of decrease in percents related to the value before treatment [8]: 29% | duration of effect [8]: 90 min | blood pressure drop, extent of decrease in percents related to the value before treatment [2]: 33% | duration of effect [2]: 120 min | blood pressure drop, extent of decrease in percents related to the value before treatment [9]: 47% | duration of effect [9]: 180 min
